In patent US5840711A, “Compositions containing lithium inorganic salts and anti-viral drugs and method of treating viral infections such as acquired immunodeficiency syndrome” (priority 1997, dated 1998):
The name of at least one read-out is uncertain.

Experiments:
Type in all cases: cell-based
Conditions in all cases: compared to Normal Control
[1] = system: CFU-Meg (Megakaryocyte) of normal bone marrow cells; assay: AZT bone marrow toxicity in vitro, CFU-Meg colony formation
From the text: (§1) This is a standard practice.

[2] = system: BFU-E (Erythroid) of normal bone marrow cells; assay: AZT bone marrow toxicity in vitro, BFU-E colony formation
From the text: as §1

[3] = system: CFU-GM (Myeloid) of normal bone marrow cells; assay: AZT bone marrow toxicity in vitro, CFU-GM colony formation
From the text: as §1

With `Cc1cn([C@H]2C[C@H](N=[N+]=[N-])[C@@H](CO)O2)c(=O)[nH]c1=O` [AZT, 3'-azido-3'-deoxythymidine] the “CFU-Meg (Megakaryocyte), percent in parentheses” value (from here on “CFU-Meg (Megakaryocyte), percent”) ([1]; AZT 0.01 μM) was 100, the “CFU-Meg (Megakaryocyte), percent” value ([1]; AZT 0.1 μM) was 61 and the “CFU-Meg (Megakaryocyte), percent” value ([1]; AZT 1.0 μM) was 38. The “CFU-Meg (Megakaryocyte), percent” value ([1]; AZT 10.0 μM) was 18, the “BFU-E (Erythroid), percent in parentheses” value (shortened to “BFU-E (Erythroid), percent”) ([2]; AZT 0.01 μM) was 100 and the “BFU-E (Erythroid), percent” value ([2]; AZT 0.1 μM) was 83. The “BFU-E (Erythroid), percent” value ([2]; AZT 1.0 μM) was 47, the “BFU-E (Erythroid), percent” value ([2]; AZT 10.0 μM) was 32 and the “CFU-GM (Myeloid), percent in parentheses” value ([3]; AZT 0.01 μM) was 100. For the same compound, the “CFU-GM (Myeloid), percent in parentheses” value ([3]; AZT 0.1 μM) was 72, the “CFU-GM (Myeloid), percent in parentheses” value ([3]; AZT 1.0 μM) was 52 and the “CFU-GM (Myeloid), percent in parentheses” value ([3]; AZT 10.0 μM) was 25.
